From patent publication EP0306160A2, “Molluscicides” (BRITISH TECHNOLOGY GROUP LIMITED, priority 1987, dated 1989)

What was measured:
[1] = system: grey field slugs, Deroceras reticulatum; experiment: Stomach poison action, voluntary feeding (wheatmeal bait); type: in vivo
Deroceras reticulatum = experiment: Bait bioassay with increasing concentrations in standard bait (Examples 19-35); type: in vivo; conditions: for Eaten (%): 0.5 g bait, 10 slugs, 4 days; for a.i.ingested: total over six groups of ten slugs offered bait containing 1,4,7,10,13 or 16% a.i.

Compound	Eaten (%) (Deroceras reticulatum; 1 % a.i. in standard bait)	Eaten (%) (Deroceras reticulatum; 4 % a.i. in standard bait)	Eaten (%) (Deroceras reticulatum; 7 % a.i. in standard bait)	Eaten (%) (Deroceras reticulatum; 10 % a.i. in standard bait)	Eaten (%) (Deroceras reticulatum; 13 % a.i. in standard bait)	Eaten (%) (Deroceras reticulatum; 16 % a.i. in standard bait)	a.i.ingested (Deroceras reticulatum)	further results
CC(=O)C=C(C)[O][Al]([O]C(C)=CC(C)=O)[O]C(C)=CC(C)=O [Example 19, Tris (2,4-pentanedionato) Al III]	100%	44%	29%	20%	19%	20%	–	Bait eaten by 10 slugs ([1]; 0.01 % Al in wheatmeal bait): 1.46 (Ex.3) g Dry Wt; Bait eaten by 10 slugs ([1]; 0.03 % Al in wheatmeal bait): 0.95 (Ex.4) g Dry Wt; Bait eaten by 10 slugs ([1]; 0.1 % Al in wheatmeal bait): 0.80 (Ex.5) g Dry Wt; Bait eaten by 10 slugs ([1]; 0.1 % Metal in wheatmeal bait (Table III)): 0.315 (Ex. 9) g Dry Wt.; Bait eaten by 10 slugs ([1]; 0.3 % Al in wheatmeal bait): 0.51 (Ex 6) g Dry Wt; Bait eaten by 10 slugs ([1]; 0.5 % Metal in wheatmeal bait (Table III)): 0.105 (Ex. 10) g Dry Wt.; Bait eaten by 10 slugs ([1]; 1.0 % Al in wheatmeal bait): 0.43 (Ex.7) g Dry Wt; Bait eaten by 10 slugs ([1]; 1.0 % Metal in wheatmeal bait (Table III)): 0.120 (Ex. 11) g Dry Wt.; Bait eaten by 10 slugs ([1]; 3.0 % Al in wheatmeal bait): 0.52 (Ex.8) g Dry Wt; Bait eaten by 10 slugs ([1]; 5.0 % Metal in wheatmeal bait (Table III)): 0.180 (Ex. 12) g Dry Wt.; Bait eaten by 10 slugs ([1]; 10.0 % Metal in wheatmeal bait (Table III)): 0.090 (Ex. 13) g Dry Wt.
CCC(=O)C=C(C)[O][Al]([O]C(C)=CC(=O)CC)[O]C(C)=CC(=O)CC [Example 20, Tris (2,4-hexanedionato) Al III]	100%	100%	58%	29%	26%	22%	–	–
CCC(=O)C=C(CC)[O][Al]([O]C(=CC(=O)CC)CC)[O]C(=CC(=O)CC)CC [Example 21, Tris (3,5-heptanedionato) Al III]	100%	100%	>10%	>10%	>10%	>10%	–	–
CN(N=O)[O][Fe]([O]N(C)N=O)[O]N(C)N=O [Example 22, Tris (N-nitroso-N-methyl hydroxylaminato) Fe III]	17%	11%	4%	8%	5%	7%	–	–
CCN(N=O)[O][Fe]([O]N(CC)N=O)[O]N(CC)N=O [Example 30, Tris (N-nitroso-N-ethyl hydroxylaminato) Fe III]	–	–	–	–	–	–	6 mg/60 slugs	–
CCCN(N=O)[O][Fe]([O]N(CCC)N=O)[O]N(CCC)N=O [Example 31, Tris (N-nitroso-N-n-propyl hydroxylaminato) Fe III]	–	–	–	–	–	–	55 mg/60 slugs	–
CC(C)N(N=O)[O][Fe]([O]N(N=O)C(C)C)[O]N(N=O)C(C)C [Example 32, Tris (N-nitroso-N-2-propyl hydroxylaminato) Fe III]	–	–	–	–	–	–	3 mg/60 slugs	–
CCCCN(N=O)[O][Fe]([O]N(CCCC)N=O)[O]N(CCCC)N=O [Example 33, Tris (N-nitroso-N-n-butyl hydroxylaminato) Fe III]	–	–	–	–	–	–	53 mg/60 slugs	–
CCC(C)N(N=O)[O][Fe]([O]N(N=O)C(C)CC)[O]N(N=O)C(C)CC (stereo not drawn) [Example 34, Tris (N-nitroso-N-2-butyl hydroxylaminato) Fe III]	–	–	–	–	–	–	54 mg/60 slugs	–
CC(C)CN(N=O)[O][Fe]([O]N(CC(C)C)N=O)[O]N(CC(C)C)N=O [Example 35, Tris (N-nitroso-N-2-methylpropyl hydroxylaminato) Fe III]	–	–	–	–	–	–	160 mg/60 slugs	–
Aluminium sulphate [reference compound]	–	–	–	–	–	–	–	Bait eaten by 10 slugs ([1]; 0.01 % Al in wheatmeal bait): 1.31 g Dry Wt; Bait eaten by 10 slugs ([1]; 0.03 % Al in wheatmeal bait): 1.08 g Dry Wt; Bait eaten by 10 slugs ([1]; 0.1 % Al in wheatmeal bait): 0.62 g Dry Wt; Bait eaten by 10 slugs ([1]; 0.3 % Al in wheatmeal bait): 0.89 g Dry Wt; Bait eaten by 10 slugs ([1]; 1.0 % Al in wheatmeal bait): 0.41 g Dry Wt; Bait eaten by 10 slugs ([1]; 3.0 % Al in wheatmeal bait): 0.42 g Dry Wt
Tris (1-dimethoxy-2, 4-pentanedionato) Al III [Example 29]	–	–	–	–	–	–	35 mg/60 slugs	–
